These results are taken from paper PMC8657799.

Chains of the proteins cited; added tags and fusions are not shown. Lines headed by an entry give the natural chain unless they say otherwise; changes in a name come on top.
UniProt Q96D31: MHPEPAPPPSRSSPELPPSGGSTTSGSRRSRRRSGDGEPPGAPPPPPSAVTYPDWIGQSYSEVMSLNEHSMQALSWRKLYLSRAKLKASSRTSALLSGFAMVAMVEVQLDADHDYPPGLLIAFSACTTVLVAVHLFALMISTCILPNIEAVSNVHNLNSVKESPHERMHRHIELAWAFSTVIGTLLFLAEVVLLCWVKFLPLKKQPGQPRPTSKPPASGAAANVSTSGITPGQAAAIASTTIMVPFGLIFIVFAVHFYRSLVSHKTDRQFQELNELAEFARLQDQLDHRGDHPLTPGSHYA

Results are given in words; binding and its absence hold for the method and conditions named. Binding seen in cells or lysates may run through a third protein. Some binding calls cover weakened binding; strength is not graded here.

The target in this test is T1, 3xHA-RHBDL2 (wild type, active) (mouse) (UniProt A2AGA4).
T1 sequence: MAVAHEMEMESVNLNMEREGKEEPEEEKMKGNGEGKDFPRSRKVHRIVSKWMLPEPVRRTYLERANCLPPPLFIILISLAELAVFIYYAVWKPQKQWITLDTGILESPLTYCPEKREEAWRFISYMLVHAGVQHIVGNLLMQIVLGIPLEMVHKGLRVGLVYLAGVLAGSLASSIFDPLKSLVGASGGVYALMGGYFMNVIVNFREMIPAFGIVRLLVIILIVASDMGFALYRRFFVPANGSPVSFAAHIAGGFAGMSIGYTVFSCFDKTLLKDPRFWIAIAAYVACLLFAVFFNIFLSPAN
Nature of the test: co-IP; HA antibody-coupled beads, 2-3 h at 4°C, lysates of HEK293 cells co-expressing 3xHA-RHBDL2 (WT or SA) and V5-hOrai1 forms for 24 h; 1% Triton X-100, 150 mM NaCl, 50 mM Tris-HCl pH 7.4; blotted for V5 and HA; in Figure 7D cells were kept for 5 min before lysis in 2 mM Ca2+ or in Ca2+-free solution with 1 mM EGTA.
For “V5-hOrai1 G98C (from UniProt Q96D31 1-301)”, the binding entry is listed as “binds weakly”.
In the case of “V5-hOrai1 G98S (from UniProt Q96D31 1-301)”, the binding entry is “binds”.
In the case of “V5-hOrai1 H134S (from UniProt Q96D31 1-301)”, the binding entry is listed as “binds”.
For the substance “V5-hOrai1 H134W (from UniProt Q96D31 1-301)”, the binding entry is recorded as “binds weakly”.
In the case of “V5-hOrai1 R91W (from UniProt Q96D31 1-301)”, the binding result is “binds weakly”.
